PubChem BioAssay AID1671195 | Yale University, 2021

Purpose: 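Genes whose knockdown alters LDL uptake in liver cancer cells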 (primary screen)
Cells: human Huh7 hepatoma cells
Reagent: siRNA pool against human genes, 18 nM
Duration: about 2 to 2.5 days of knockdown, then 8 h LDL uptake
Challenge: DiI-labelled LDL at 30 µg/ml for 8 h, in lipoprotein-deficient serum medium
Detection: 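Fluorescent LDL signal imaged in cells, scaled to the plate median, robust z-score for each replicate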
Reading the numbers: robust z-score: higher = more LDL uptake after knockdown
Active means: 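a gene counts as active if at least two replicate z-scores exceed ±2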
Here is one part, drawn at random, of about 22,000 deposited reagents. About 1,510 of them (6.9%) count as active. 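Active includes knockdowns raising or lowering LDL uptake; positive z-scores mean more uptake, negative mean less.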 Entries without a mark were called inactive.

Silencing of POT1 (protection of telomeres 1) gave: robust z-score, replicate 1 = 2.03; robust z-score, replicate 2 = 2.26; robust z-score, replicate 3 = 0.872. MRGPRX6P (MAS related GPR family member X6, pseudogene) gave robust z-score, replicate 1 = 1.58; robust z-score, replicate 2 = 1.03; robust z-score, replicate 3 = 0.864. VEZT (vezatin, adherens junctions transmembrane protein) gave robust z-score, replicate 1 = 0.0523; robust z-score, replicate 2 = 1.26; robust z-score, replicate 3 = -0.302. FPR2 (formyl peptide receptor 2) showed robust z-score, replicate 1 = -1.23; robust z-score, replicate 2 = 0.562; robust z-score, replicate 3 = -0.701. Against LOC441877 (retired record), the values are robust z-score, replicate 1 = 0.579; robust z-score, replicate 2 = 0.563; robust z-score, replicate 3 = 0.804. RHEBL1 (RHEB like 1) showed robust z-score, replicate 1 = 1.27 (active); robust z-score, replicate 2 = 4.18; robust z-score, replicate 3 = 2.8.

TGDS (TDP-glucose 4,6-dehydratase) showed robust z-score, replicate 1 = 0.126; robust z-score, replicate 2 = 0.554; robust z-score, replicate 3 = -0.383.

2 entries already listed, ordered by “robust z-score, replicate 2”, lowest first:
FPR2 (formyl peptide receptor 2) → robust z-score, replicate 1 = -1.23; robust z-score, replicate 2 = 0.562; robust z-score, replicate 3 = -0.701
LOC441877 (retired record) → robust z-score, replicate 1 = 0.579; robust z-score, replicate 2 = 0.563; robust z-score, replicate 3 = 0.804

The listing continues.
Silencing of FTMT (ferritin mitochondrial) gave: robust z-score, replicate 1 = -1.64; robust z-score, replicate 2 = -1.34; robust z-score, replicate 3 = -0.694. With knock-down of ACP2 (acid phosphatase 2, lysosomal), the screen gave robust z-score, replicate 1 = 1.75 (active); robust z-score, replicate 2 = 2.44; robust z-score, replicate 3 = 2.23. For ATF7IP (activating transcription factor 7 interacting protein), the entry reads robust z-score, replicate 1 = 1.58; robust z-score, replicate 2 = -0.162; robust z-score, replicate 3 = -0.554. After knock-down of OR5M1 (olfactory receptor family 5 subfamily M member 1) the results were robust z-score, replicate 1 = 0.58; robust z-score, replicate 2 = 0.825; robust z-score, replicate 3 = 0.49. For BICDL2 (BICD family like cargo adaptor 2), the entry reads robust z-score, replicate 1 = 2.02 (active); robust z-score, replicate 2 = 2.76; robust z-score, replicate 3 = 1.7. After knock-down of OACYLP (O-acyltransferase like, pseudogene) the results were robust z-score, replicate 1 = 0.858; robust z-score, replicate 2 = 1.07; robust z-score, replicate 3 = 1.06.

ACTN3 (actinin alpha 3) scored robust z-score, replicate 1 = -1.3; robust z-score, replicate 2 = -1.21; robust z-score, replicate 3 = -0.151. Against LOC389771 (retired record), the entry reads robust z-score, replicate 1 = -0.696; robust z-score, replicate 2 = -0.641; robust z-score, replicate 3 = -1.29. With knock-down of TIA1 (TIA1 cytotoxic granule associated RNA binding protein) the results were robust z-score, replicate 1 = 0.959; robust z-score, replicate 2 = 1.52; robust z-score, replicate 3 = 1.53.
